# From PubChem BioAssay AID588499 (NMMLSC, 2011)
# Out of some 360,000 compounds screened, about 610 (0.17%) were called active. The shares of active, inactive and inconclusive entries below differ from those in the screen. Rule as the data show it: active = inhibition above about 30%; inconclusive = no clear call, values can overlap the other calls; inactive = below that.
# System: Botulinum neurotoxin type A light chain protease (Clostridium botulinum A str. ATCC 3502)
# Experiment: blockers of BoNT/A LC substrate cleavage – biochemical, flow cytometry, MLPCN library, primary screen (AID 588499); also: plate controls were buffer without enzyme for full effect and enzyme alone for no effect
# Details: multiplex microsphere protease substrate cleavage, at 10 µM, hits give high values
row,Compound,inhibition
1,COc1cccc(NC(=O)N2CCN(C(=O)C(Cc3ccc(OC)c(OC)c3)NC(C)=O)CC2)c1 (stereo not given),inconclusive: 10.8%
2,CCOc1ccc(-c2csc(C3COc4ccccc4O3)n2)cc1 (stereo not given),inactive: 0.6%
3,CCN(CC)C(=O)[C@H]1C[C@H](CC(=O)NCCCn2ccnc2)C(=O)N2CCc3c([nH]c4cc(CCC(=O)N(C)C)ccc34)[C@]12C,inactive: -0.4%
4,COc1cc(C(=O)OCC(=O)Nc2ccc(F)cc2F)cc(OC)c1OC,inconclusive: -2%
5,Cc1nc(-c2cc(-c3nc(-c4ccc(C(F)(F)F)cc4)no3)no2)cs1,inconclusive: 4.3%
6,Cc1cc(C)nc(N2CCC(C(=O)NCc3cccs3)CC2)n1,inconclusive: 0.1%
7,CCN1C(=O)c2ccc(C(=O)Nc3ccc4c(c3)OCO4)cc2C1=O,inactive: 2.7%
8,COc1ccc(CCNc2oc(Cc3cccc4ccccc34)nc2C#N)cc1OC,inactive: -0.7%
9,CCCCOC(=O)c1cc(=O)[nH]c2ccccc12,inactive: 1.5%
10,Cc1nnc2c3ccccc3c(-c3cccc4ccccc34)nn12,inconclusive: 8.1%
11,O=C(COc1ccc(F)cc1)Nc1ccc(-n2cnnn2)cc1,inconclusive: 0%
12,CC(=O)c1ccc(NC(=S)N2CCC(Cc3ccccc3)CC2)cc1,inconclusive: -11.8%
13,C=CCn1cccc(/C=C/C(=O)c2ccc(C(C)(C)C)cc2)c1=S,active: 29.9%
14,c1ccc(CCCN2CCOCC2)cc1,inconclusive: 1.4%
15,C/C(CC(=O)Nc1cccc2c1CCCC2)=N\NC(=O)c1ccccc1N,inconclusive: -2.9%
16,CCOC1=C2CN(S(=O)(=O)c3ccc(C)cc3)[C@@H](c3cccs3)C[C@H]2[C@H]2C(=O)N(c3ccccc3)C(=O)[C@H]2C1,inactive: 0.7%
17,CSc1nc2nccc(/C=C\c3ccccc3)n2n1,inconclusive: 1.9%
18,COc1ccc(CN2C(=O)CC(=O)NC2=O)cc1,inconclusive: 1.7%
19,C=C(C)C1CC=C(C)/C(=N/NC(=O)CCC(=O)Nc2ccccc2Cl)C1 (stereo not given),inactive: -4.7%
20,COc1ccc2c(n1)Sc1nc3ccccc3nc1N2,active: 29.9%

row,Compound,inhibition
1,O=C(c1ccccn1)N1CCN(c2ccc(C(F)(F)F)cn2)CC1,inconclusive: 24.1%
2,COc1ccc2oc(C(=O)OCC(=O)N(C)c3ccccc3)c(C)c2c1,inactive: 1.5%
3,COc1ccc(S(=O)(=O)NN=C2CCCC2)cc1,inactive: -1%
4,CCNC(=O)C(=O)NCC1CCCN1S(=O)(=O)c1cccs1 (stereo not given),inactive: -1.8%
5,Cc1cccc(N(C)c2cc(-c3ccc(F)cc3)nc3ccnn23)c1,inactive: 0.8%
6,CCc1nc2ccccc2nc1N1CCN(S(=O)(=O)c2ccc(Cl)cc2)CC1,inconclusive: -60.4%
7,CCOC(=O)c1ccccc1OCc1cc(/C=N/NC(=O)c2cccnc2)ccc1OC,inconclusive: 8.8%
8,CC1CCC/C(=C\Nc2ccc3c(c2)OCO3)C1=O (stereo not given),inactive: 0%
9,Cc1ccc(CNC(=O)c2ccc(C#CC(C)(C)O)s2)cc1,inconclusive: -0.9%
10,C=CCc1cccc2cc(C(=O)N3CCN(C(=O)OCC)CC3)c(=O)oc12,inconclusive: 2.2%
11,CC1(C)NC(=O)N(CC(O)CN2CCCCC2)C1=O (stereo not given),inconclusive: 1.6%
12,COc1ccc(OC)c(NC(=O)CNC(=O)c2cccs2)c1,inconclusive: 1.1%
13,CCN1/C(=C/c2ccc3cc(C)ccc3[n+]2CC)Sc2ccc3sccc3c21,active: 49.2%
14,FC(F)(F)c1cccc(NC(=S)Nc2cccc(NC(=S)Nc3cccc(C(F)(F)F)c3)n2)c1,inconclusive: -3.5%
15,Cn1c(=O)c2c(nc(Br)n2Cc2ccc3ccccc3c2)n(C)c1=O,inconclusive: 4.1%
16,CCOCCCn1c(=S)[nH]c2cc(C(=O)N3CCOCC3)ccc2c1=O,inactive: -2%
17,COc1ccc(C(=O)NC(=S)NCc2ccc(-c3nc4ccccc4o3)cc2)cc1OC,inconclusive: -0.9%
18,CC(=O)c1c(C)n([O-])c2ccccc2[n+]1=O,inconclusive: -2.1%
19,COc1cc2nc(NC(=O)c3ccccc3)[nH]c(=O)c2cc1OC,inactive: -1.4%
20,COC(=O)C1=C(C)n2nnnc2NC1c1cc2ccccc2o1 (stereo not given),inconclusive: 13.2%

# As entered above:
# In inhibition, `CCOCCCn1c(=S)[nH]c2cc(C(=O)N3CCOCC3)ccc2c1=O` is entered as inactive: -2%
# In inhibition, `CC1CCC/C(=C\Nc2ccc3c(c2)OCO3)C1=O` (stereo not given) is entered as inactive: 0%
# In inhibition, `COc1cc(C(=O)OCC(=O)Nc2ccc(F)cc2F)cc(OC)c1OC` is entered as inconclusive: -2%

# Next records follow:

row,Compound,inhibition
1,CCCCOc1ccc(NC(=O)CSCC(=O)OCC)cc1,inconclusive: -1.5%
2,CN(CC(=O)Nn1cnnc1)S(=O)(=O)c1ccc(Br)cc1,inconclusive: 8.3%
3,COCC(C)NC(C(=O)Nc1ccc(C)c(Cl)c1)c1ccccc1 (stereo not given),inconclusive: 1.8%
4,Cc1ccc(Cl)cc1NC(=O)CCC(=O)O,inconclusive: 1.9%
5,O=C(c1cccs1)N1CCN(C2CCCCC2)CC1,inconclusive: 4.4%
6,COC(=O)c1sc(N2CCCCC2)c(C#N)c1N,inconclusive: -40.2%
7,COc1ccc(OC)c(S(=O)(=O)Nc2cccnc2)c1,inconclusive: 0.7%
8,Cc1cc(Cl)cc(Br)c1OCCCN1C(=O)NC(C)(C)C1=O,inactive: 4.3%
9,Cc1ccccc1-c1nc(CN2CCCC(C(=O)NCc3cccnc3)C2)c(C)o1 (stereo not given),inconclusive: -5.1%
10,COc1ccccc1C1C(C#N)=C(N)Oc2cc(C)n(Cc3ccccn3)c(=O)c21 (stereo not given),inconclusive: 2.5%
11,Cc1c(C(=O)NC(C)c2ccncc2)oc2ccccc12 (stereo not given),inconclusive: -2.7%
12,N#C/C(=C\c1cc(Cl)cc(Cl)c1O)C(=O)NC1CCCCC1,inconclusive: 0.4%
13,CC(C)N1C(=O)S/C(=C/c2cccnc2)C1=O,inconclusive: 1.2%
14,Cc1ccc(N(CN2CCCC2=O)C(=O)c2ccc(OC(C)C)cc2)cc1,inconclusive: 6.6%
15,COC(=O)CN1C(c2ccccc2)=Nc2ccc(Cl)cc2C1c1ccccc1 (stereo not given),inconclusive: 177%
16,O=C(CCn1c(=S)oc2ccccc21)NC1CCCCCC1,inactive: -1.1%
17,Clc1ccc2nc(C(Cl)(Cl)Cl)[nH]c2c1,inactive: -0.1%
18,CCOc1cc(C)nc(Oc2ccc(=O)[nH]n2)n1,inconclusive: 1%
19,CCC(C)Nc1c([N+](=O)[O-])cc(C)cc1[N+](=O)[O-] (stereo not given),inconclusive: -2.7%
20,CC(NC(=O)c1csc2ccccc12)C1CCCO1 (stereo not given),inconclusive: -3.4%
